Several values for one entry are separate records, joined by “and”; a condition that tells them apart may be missing. Identical values can stand only once. In all, about 390,000 compounds went through this assay and about 4,000 (1%) were called active. The shares of active, inactive and inconclusive entries below differ from those in the screen. The call rests on the fitted dose curve; in most records, active means well fitted inhibition curve with a large enough effect; inconclusive means small, poorly fitted or top-dose-only effect, or another doubt; inactive means no such curve, though single readings can be large or run the other way. A potency beside an inconclusive call is a rough fit, not a confirmed value.
Molecular target: DNA polymerase iota (Homo sapiens) (UniProt Q9UNA4)
Experiment: qHTS for Inhibitors of Polymerase Iota
Details: Pol iota fluorescent replication assay, 10 min; series mostly up to 115 µM; activity, negative = inhibition: at the top concentration
Outline: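 Fluorescent replication assay read twice, at 0 min and 10 min after adding 50 nM (final) substrate. Enzyme (10 nM) and compounds were first incubated 15 min at room temperature; enzyme-free buffer wells were negative controls.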
Potency means the concentration at half of the fitted maximal effect.

Protein sequences, listed by entry. Tags and fused reporters are not part of them. Lines headed by an entry give the natural chain unless they say otherwise; changes in a name come on top.
UniProt Q9UNA4: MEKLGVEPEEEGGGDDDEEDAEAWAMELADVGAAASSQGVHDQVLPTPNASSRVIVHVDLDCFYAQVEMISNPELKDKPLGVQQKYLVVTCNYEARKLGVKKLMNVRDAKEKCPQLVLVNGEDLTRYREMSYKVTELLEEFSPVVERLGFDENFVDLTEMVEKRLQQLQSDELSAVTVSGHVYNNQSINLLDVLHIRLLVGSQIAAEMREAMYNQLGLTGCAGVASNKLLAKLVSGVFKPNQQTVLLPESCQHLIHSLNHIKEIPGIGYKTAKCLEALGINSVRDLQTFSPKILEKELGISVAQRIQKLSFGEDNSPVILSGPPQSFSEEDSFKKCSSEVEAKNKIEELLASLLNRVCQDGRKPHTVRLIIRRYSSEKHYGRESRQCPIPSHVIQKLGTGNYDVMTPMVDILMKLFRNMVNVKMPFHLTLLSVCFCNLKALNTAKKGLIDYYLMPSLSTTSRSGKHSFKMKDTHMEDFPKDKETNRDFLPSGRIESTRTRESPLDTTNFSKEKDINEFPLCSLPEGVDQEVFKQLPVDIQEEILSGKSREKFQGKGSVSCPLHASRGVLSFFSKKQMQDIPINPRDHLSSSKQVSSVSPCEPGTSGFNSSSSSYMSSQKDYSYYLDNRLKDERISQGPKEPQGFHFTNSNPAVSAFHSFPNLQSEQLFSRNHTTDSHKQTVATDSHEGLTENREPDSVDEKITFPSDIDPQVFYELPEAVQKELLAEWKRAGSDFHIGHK

activity, negative = inhibition, inactive:
COc1ccc(-c2nn3c(-c4ccc(C)cc4)nnc3c3ccccc23)cc1 32.5%, COc1ccc(NC(=O)Cn2c(=O)n(-c3ccc(CC(=O)NCC4CCCO4)cc3)c(=O)c3ccccc32)c(OC)c1 (stereo not given) 15.8%, O=C(COc1ccc(S(=O)(=O)N2CCOCC2)cc1)N1CCOCC1 26.9%, COc1ccc(NC(=O)c2cc3c([nH]c2=O)CC(c2ccccc2)CC3=O)cc1 (stereo not given) 24.5%, CCOC(=O)c1c(C)n(-c2ccccc2)c2ccc(OC(=O)c3ccc(OCC)c(OCC)c3)cc12 15.9%, COc1cc(SC)ccc1C(=O)Nc1c(C)cccc1C 138%, CCOC(=O)c1c(C)oc2c1c(CN1CCN(C(=O)OCC)CC1)c(O)c1ccccc12 23.9%, Cc1cccc(NCc2nnc3n2CCCCC3)c1C 19.9%, CNc1ccc(/C=C(\CCC(=O)O)c2nc3ccccc3s2)cc1[N+](=O)[O-] -1.49%, CCOC(=O)c1c(C)sc(-c2c(-c3ccc4c(c3)OCCO4)[nH]c3c2c(=O)[nH]c(=O)n3C)c1O -24.1%, Cc1ccccc1C(=O)NCC(c1cccnc1)N1CCc2ccccc21 (stereo not given) 4.22%, COc1ccc(N2CC3=C(C2=O)C(c2ccc(Br)cc2)NC(=O)N3C)cc1 (stereo not given) 15.1%, CCOCCCn1c(=N)c(C(=O)NCc2ccco2)cc2c(=O)n3ccccc3nc21 25.8%, COc1ccc2nc3sc(C(=O)Nc4cc(Cl)c(OC)cc4OC)cc3cc2c1 -5.05%, O=C(NCN1CCCCC1)c1cnccn1 -3.88%, COc1ccc(S(=O)(=O)N2CCN(CC(=O)Nc3sccc3C(N)=O)CC2)cc1OC 5.53%, NCCNC(=O)c1c(NC(=O)c2ccccc2)sc2c1CCCC2 0.801%, Cc1ccc(F)c(C2C3C=CCCC3(C)C(=O)N2Cc2ccccc2)c1 (stereo not given) -21.6%, CC(=O)Nc1cccc(-n2nnc(SCC(N)=O)n2)c1 14.6%

Potency, inconclusive:
COc1ccc2nc(NC(=O)CCN3C(=S)NC(C)(C)CC3C)sc2c1 (stereo not given) 89.1 µM [inhibitor, partial curve, poor fit], CCCOc1ccc(OC(=O)c2c(-c3ccccc3Cl)noc2C)cc1 79.4 µM [inhibitor, partial curve, poor fit], Cc1cccc(-c2noc(-c3ccc(NCC4CCCO4)c([N+](=O)[O-])c3)n2)c1 (stereo not given) 100 µM [inhibitor, single point], CCc1sc(C(=O)NNC(=O)CNC(=O)c2ccccc2F)cc1C 8.91 µM [inhibitor, partial curve, poor fit], COc1nc(-c2ccc3c(c2)OCO3)n(-c2ccc(NC(=O)CSc3ccccc3)cc2)n1 31.6 µM [inhibitor, partial curve, poor fit], COc1ccccc1NC(=O)CCn1nc(-c2ccccc2)c2ccccc2c1=O 56.2 µM [inhibitor, partial curve, poor fit], COc1ccc2oc(C(=O)Nc3nc(-c4ccccn4)cs3)c(C)c2c1 14.1 µM [inhibitor, full curve, poor fit], COCCN(CCOC)C(=O)COC(=O)c1ccc(Cl)c(S(=O)(=O)N(C)c2ccccc2)c1 89.1 µM [inhibitor, single point], N=c1c(C(=O)NCc2ccco2)cc2c(=O)n3ccccc3nc2n1Cc1ccccc1 11.2 µM [inhibitor, partial curve, poor fit], Cc1cc(C(=O)COc2ccc(C#N)cc2)c(C)n1CC1CCCO1 (stereo not given) 31.6 µM [inhibitor, single point], CCCOc1cc2c(C#N)c(N3CCCC3)nc(N)c2c(N)n1 17.8 µM [inhibitor, partial curve, poor fit], O=C(CSc1nc2sccc2c(=O)[nH]1)N1CCN(c2ccccc2)CC1 56.2 µM [inhibitor, partial curve, poor fit], O=C(c1ccc(-c2ccc(Cl)cc2)o1)N1CCN(c2ccc([N+](=O)[O-])cc2Cl)CC1 7.08 µM [inhibitor, full curve, poor fit], COc1cccc(-n2c(=O)c3sc4ccccc4c3n(CC(=O)Nc3ccc(F)cc3F)c2=O)c1 89.1 µM [inhibitor, single point], O=C(COC(=O)c1ccc(CO)cc1)Nc1ccc2ccccc2c1 89.1 µM [inhibitor, single point], CC(=O)Nc1c(C(=O)C2CC2)oc2ccccc12 56.2 µM [inhibitor, partial curve, poor fit], Nc1nonc1-c1nc2ccccc2n1CC(=O)N/N=C/c1ccc(-c2ccccc2C(=O)O)o1 12.6 µM [inhibitor, full curve], CCOC(=O)c1c(NC(=O)CNCCOC)sc2c1CCCC2 39.8 µM [inhibitor, single point], O=C(O)CCC(=O)Nc1ccc(Cc2ccc(NC(=O)CCC(=O)O)c(O)c2)cc1O 28.2 µM [inhibitor, single point], Cc1cccn2c(=O)c3cc(C#N)c(=NC(=O)c4ccccc4)n(Cc4ccco4)c3nc12 14.1 µM [inhibitor, full curve, poor fit] and 12.6 µM [inhibitor, full curve, poor fit], CCN(C[C@H]1N[C@@](Cc2ccccc2)(C(=O)OC)[C@H]2C(=O)N(Cc3ccccc3)C(=O)[C@@H]12)C(=O)COC 35.5 µM [inhibitor, single point], Cc1ccc(C(=O)Nc2ccccc2C(=O)NC(Cc2c[nH]c3ccccc23)C(=O)O)cc1 (stereo not given) 70.8 µM [inhibitor, single point], O=C(O)c1cc(S(=O)(=O)O)cc(Nc2c3ccccc3nc3ccccc23)c1O 28.2 µM [inhibitor, partial curve], CCOc1ccc(NC(=O)CN(C)C(=O)c2cc(S(=O)(=O)N(C)C)ccc2N2CCCC2)cc1OCC 100 µM [inhibitor, single point], O=C(COc1ccc2c(c1)oc(=O)c1ccccc12)NCCCN1CCOCC1 79.4 µM [inhibitor, partial curve, poor fit], CCN1CCCC1CN(Cc1cc2cc(C)ccc2[nH]c1=O)C(=O)Nc1ccccc1OC (stereo not given) 1 µM [inhibitor, full curve, poor fit], Cc1cc2nc3c(=O)[nH]c(=O)[nH]c3nc2c([N+](=O)[O-])c1N 11.2 µM [inhibitor, full curve, poor fit], COc1ccc(CN2CCNC(=O)C2CC(=O)N(C)CCc2cnn(C)c2)c(F)c1 (stereo not given) 20 µM [inhibitor, partial curve, poor fit], CCn1cc(C(=O)NCc2ccccc2)c(=O)c2cc(S(=O)(=O)N3CCCCC3)ccc21 79.4 µM [inhibitor, single point], Cc1cc(OC(=O)c2c(C)cc(OC(=O)c3c(C)cc(O)cc3O)cc2O)cc(O)c1C(=O)O 1 µM [inhibitor, partial curve, poor fit], O=C(Nc1cccc(F)c1)C1CCN(C(=O)c2ccccc2Cl)CC1 10 µM [inhibitor, single point], Cc1nc(Nc2ccccc2Br)c2nnn(Cc3ccccc3)c2n1 79.4 µM [inhibitor, partial curve, poor fit], CCC(=O)Nc1ccc(N2CCOCC2)c(S(=O)(=O)Nc2ccc(Cl)cc2)c1 14.1 µM [inhibitor, partial curve], COc1ccc(/C=N/N2C(=O)CSC2=S)cc1 14.1 µM [inhibitor, partial curve, poor fit], Cc1ccccc1NC(=O)c1ccc(C)c(S(=O)(=O)Nc2ccccn2)c1 100 µM [inhibitor, partial curve, poor fit], Cc1cc(C)n2c(SCC(=O)Nc3ccccc3C#N)nnc2n1 56.2 µM [inhibitor, partial curve, poor fit], COc1ccc(NC(=O)CSc2oc(-c3ccc(C)cc3)nc2S(=O)(=O)c2ccc(C)cc2)c(OC)c1 10 µM [inhibitor, partial curve, poor fit], c1ccc(COc2ccc(CN3CCN(c4ccccn4)CC3)cc2)cc1 11.2 µM [inhibitor, partial curve, poor fit]

Potency, active:
O=C(CSc1nc(NS(=O)(=O)c2ccccc2)cc(=O)[nH]1)Nc1ccc(Cl)cc1 15.8 µM, COCC(C)N1C(=O)Cc2c1nc(N)c1c(N)nc(N3CCN(c4ccccc4F)CC3)c(C#N)c21 (stereo not given) 17.8 µM, C(=C\c1ccco1)/C=N/n1cnnc1 39.8 µM, O=C(OCc1nnc(-c2ccc([N+](=O)[O-])cc2)o1)C1CC(=O)N(CCc2ccccc2)C1 (stereo not given) 79.4 µM, S=C(Nc1ccc(N2CCOCC2)cc1)Nc1ccc2nc(-c3ccco3)c(-c3ccco3)nc2c1 2 µM, CC1=CC(C)(C)N2C(=O)C(=Nc3ccc(O)cc3)c3cccc1c32 7.94 µM, CC(/C=C1\SC(=S)N(c2ccc(C(=O)O)cc2)C1=O)=C\c1ccccc1 20 µM, CC1=NN(c2ccc(C)cc2)C(=O)/C1=C/c1ccc(-c2cc([N+](=O)[O-])ccc2O)o1 20 µM
